We go through 28 targets from the supplement of paper PMC12819154, “High-throughput peptide-centric local stability assay extends protein–ligand identification to membrane proteins, tissues and bacteria” (Nature Structural & Molecular Biology, 2025).

Amino acid sequences for entries named in this document (tags omitted). A change or cut given only in a name is not applied to a line headed by its entry.
UniProt Q15390: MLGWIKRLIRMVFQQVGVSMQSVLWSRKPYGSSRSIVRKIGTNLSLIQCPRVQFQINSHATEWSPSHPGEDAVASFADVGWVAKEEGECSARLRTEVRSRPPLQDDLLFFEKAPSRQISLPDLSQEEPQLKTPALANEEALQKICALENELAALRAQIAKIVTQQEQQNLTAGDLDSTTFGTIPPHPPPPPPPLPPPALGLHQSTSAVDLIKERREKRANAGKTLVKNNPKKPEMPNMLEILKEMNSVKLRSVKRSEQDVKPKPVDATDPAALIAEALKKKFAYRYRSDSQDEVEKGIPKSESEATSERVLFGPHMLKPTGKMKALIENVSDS
UniProt Q16718, whole entry: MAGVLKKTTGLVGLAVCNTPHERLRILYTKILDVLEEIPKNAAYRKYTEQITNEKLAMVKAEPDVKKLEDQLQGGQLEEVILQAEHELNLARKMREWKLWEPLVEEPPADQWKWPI
UniProt Q1ZZU3: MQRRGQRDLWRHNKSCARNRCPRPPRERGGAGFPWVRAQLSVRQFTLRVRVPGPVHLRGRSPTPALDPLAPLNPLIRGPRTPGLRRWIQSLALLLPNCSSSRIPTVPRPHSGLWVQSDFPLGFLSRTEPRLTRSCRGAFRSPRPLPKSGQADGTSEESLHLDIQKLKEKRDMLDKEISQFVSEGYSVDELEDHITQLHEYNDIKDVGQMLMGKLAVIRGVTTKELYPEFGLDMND
UniProt Q16760: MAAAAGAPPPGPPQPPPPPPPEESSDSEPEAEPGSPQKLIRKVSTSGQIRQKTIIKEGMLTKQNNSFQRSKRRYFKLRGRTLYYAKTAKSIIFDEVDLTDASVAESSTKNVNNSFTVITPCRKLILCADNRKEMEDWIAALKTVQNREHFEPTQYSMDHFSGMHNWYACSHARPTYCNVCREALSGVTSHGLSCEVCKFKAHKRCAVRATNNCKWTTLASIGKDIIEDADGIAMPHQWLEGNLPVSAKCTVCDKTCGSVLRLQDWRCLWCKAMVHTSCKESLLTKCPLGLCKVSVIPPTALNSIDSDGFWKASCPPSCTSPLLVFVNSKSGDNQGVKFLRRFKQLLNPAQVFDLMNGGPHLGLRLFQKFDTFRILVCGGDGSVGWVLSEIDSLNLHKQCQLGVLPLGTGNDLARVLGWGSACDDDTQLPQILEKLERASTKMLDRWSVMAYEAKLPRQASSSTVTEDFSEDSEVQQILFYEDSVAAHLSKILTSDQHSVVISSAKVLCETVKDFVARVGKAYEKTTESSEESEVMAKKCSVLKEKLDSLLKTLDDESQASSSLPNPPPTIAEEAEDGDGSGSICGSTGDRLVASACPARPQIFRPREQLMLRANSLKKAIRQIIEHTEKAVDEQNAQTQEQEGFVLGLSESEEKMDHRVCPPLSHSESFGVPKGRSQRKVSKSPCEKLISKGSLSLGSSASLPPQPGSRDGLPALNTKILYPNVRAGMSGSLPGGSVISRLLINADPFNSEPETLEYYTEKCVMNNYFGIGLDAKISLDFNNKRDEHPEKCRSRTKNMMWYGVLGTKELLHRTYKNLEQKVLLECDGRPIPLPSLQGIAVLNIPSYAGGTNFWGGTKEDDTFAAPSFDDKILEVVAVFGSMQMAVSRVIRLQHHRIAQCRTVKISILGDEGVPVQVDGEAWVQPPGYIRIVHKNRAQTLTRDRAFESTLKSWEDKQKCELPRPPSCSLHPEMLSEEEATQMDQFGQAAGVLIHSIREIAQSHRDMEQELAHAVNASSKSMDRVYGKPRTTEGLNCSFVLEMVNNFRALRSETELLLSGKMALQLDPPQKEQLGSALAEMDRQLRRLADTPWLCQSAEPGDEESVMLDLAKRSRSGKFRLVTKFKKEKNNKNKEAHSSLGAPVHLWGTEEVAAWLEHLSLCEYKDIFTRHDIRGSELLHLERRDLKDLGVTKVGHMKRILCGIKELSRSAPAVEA
UniProt Q2NL98: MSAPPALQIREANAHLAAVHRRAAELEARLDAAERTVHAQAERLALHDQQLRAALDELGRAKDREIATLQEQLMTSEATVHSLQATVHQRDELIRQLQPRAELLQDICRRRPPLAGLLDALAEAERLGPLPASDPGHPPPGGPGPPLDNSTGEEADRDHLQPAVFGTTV
UniProt Q15746, whole entry: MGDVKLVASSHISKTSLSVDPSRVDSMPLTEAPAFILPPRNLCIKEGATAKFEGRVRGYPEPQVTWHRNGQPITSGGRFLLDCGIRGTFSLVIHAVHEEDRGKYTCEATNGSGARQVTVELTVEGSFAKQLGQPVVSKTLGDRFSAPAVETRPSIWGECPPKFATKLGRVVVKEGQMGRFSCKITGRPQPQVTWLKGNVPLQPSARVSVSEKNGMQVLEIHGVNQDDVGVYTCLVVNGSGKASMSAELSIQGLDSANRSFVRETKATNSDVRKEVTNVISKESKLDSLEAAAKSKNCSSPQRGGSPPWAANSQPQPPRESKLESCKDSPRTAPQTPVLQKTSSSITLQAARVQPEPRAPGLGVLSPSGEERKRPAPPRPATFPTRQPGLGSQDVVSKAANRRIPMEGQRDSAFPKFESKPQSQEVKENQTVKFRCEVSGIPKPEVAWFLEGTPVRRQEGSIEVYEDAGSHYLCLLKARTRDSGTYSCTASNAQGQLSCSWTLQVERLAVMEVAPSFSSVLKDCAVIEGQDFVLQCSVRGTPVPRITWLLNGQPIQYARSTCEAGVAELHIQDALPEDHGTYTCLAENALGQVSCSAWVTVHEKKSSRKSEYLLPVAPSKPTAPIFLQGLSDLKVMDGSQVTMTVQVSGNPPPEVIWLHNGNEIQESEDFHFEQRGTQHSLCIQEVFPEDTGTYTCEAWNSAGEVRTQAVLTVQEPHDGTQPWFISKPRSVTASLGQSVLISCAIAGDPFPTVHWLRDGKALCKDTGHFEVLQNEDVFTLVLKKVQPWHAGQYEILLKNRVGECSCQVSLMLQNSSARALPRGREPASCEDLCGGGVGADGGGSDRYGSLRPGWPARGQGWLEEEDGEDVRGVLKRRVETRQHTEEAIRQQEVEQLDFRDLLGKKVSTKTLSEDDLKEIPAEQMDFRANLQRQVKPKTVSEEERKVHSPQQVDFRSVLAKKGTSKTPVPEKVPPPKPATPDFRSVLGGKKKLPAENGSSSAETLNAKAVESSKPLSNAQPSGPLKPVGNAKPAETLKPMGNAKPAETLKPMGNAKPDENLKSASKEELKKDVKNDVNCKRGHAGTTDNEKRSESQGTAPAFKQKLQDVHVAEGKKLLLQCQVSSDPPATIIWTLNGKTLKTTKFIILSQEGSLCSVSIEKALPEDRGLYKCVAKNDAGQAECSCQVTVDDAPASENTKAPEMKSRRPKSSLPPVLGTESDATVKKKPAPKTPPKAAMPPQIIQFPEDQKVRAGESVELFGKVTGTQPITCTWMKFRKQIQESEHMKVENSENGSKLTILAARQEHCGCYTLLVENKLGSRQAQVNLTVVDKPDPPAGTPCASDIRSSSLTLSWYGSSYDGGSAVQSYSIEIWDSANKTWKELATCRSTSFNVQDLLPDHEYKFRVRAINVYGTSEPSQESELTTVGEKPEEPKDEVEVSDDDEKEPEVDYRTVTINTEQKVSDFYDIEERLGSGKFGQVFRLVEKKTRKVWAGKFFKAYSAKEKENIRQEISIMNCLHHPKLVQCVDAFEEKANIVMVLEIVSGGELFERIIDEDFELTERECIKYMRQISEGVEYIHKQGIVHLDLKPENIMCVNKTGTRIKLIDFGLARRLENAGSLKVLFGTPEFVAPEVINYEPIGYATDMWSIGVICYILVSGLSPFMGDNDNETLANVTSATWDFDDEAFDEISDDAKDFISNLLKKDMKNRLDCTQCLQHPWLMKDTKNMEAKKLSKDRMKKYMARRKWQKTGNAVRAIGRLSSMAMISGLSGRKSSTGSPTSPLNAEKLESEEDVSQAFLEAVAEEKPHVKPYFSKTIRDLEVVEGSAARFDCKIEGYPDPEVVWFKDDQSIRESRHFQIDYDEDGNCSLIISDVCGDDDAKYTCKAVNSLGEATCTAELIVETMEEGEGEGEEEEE
UniProt Q15643: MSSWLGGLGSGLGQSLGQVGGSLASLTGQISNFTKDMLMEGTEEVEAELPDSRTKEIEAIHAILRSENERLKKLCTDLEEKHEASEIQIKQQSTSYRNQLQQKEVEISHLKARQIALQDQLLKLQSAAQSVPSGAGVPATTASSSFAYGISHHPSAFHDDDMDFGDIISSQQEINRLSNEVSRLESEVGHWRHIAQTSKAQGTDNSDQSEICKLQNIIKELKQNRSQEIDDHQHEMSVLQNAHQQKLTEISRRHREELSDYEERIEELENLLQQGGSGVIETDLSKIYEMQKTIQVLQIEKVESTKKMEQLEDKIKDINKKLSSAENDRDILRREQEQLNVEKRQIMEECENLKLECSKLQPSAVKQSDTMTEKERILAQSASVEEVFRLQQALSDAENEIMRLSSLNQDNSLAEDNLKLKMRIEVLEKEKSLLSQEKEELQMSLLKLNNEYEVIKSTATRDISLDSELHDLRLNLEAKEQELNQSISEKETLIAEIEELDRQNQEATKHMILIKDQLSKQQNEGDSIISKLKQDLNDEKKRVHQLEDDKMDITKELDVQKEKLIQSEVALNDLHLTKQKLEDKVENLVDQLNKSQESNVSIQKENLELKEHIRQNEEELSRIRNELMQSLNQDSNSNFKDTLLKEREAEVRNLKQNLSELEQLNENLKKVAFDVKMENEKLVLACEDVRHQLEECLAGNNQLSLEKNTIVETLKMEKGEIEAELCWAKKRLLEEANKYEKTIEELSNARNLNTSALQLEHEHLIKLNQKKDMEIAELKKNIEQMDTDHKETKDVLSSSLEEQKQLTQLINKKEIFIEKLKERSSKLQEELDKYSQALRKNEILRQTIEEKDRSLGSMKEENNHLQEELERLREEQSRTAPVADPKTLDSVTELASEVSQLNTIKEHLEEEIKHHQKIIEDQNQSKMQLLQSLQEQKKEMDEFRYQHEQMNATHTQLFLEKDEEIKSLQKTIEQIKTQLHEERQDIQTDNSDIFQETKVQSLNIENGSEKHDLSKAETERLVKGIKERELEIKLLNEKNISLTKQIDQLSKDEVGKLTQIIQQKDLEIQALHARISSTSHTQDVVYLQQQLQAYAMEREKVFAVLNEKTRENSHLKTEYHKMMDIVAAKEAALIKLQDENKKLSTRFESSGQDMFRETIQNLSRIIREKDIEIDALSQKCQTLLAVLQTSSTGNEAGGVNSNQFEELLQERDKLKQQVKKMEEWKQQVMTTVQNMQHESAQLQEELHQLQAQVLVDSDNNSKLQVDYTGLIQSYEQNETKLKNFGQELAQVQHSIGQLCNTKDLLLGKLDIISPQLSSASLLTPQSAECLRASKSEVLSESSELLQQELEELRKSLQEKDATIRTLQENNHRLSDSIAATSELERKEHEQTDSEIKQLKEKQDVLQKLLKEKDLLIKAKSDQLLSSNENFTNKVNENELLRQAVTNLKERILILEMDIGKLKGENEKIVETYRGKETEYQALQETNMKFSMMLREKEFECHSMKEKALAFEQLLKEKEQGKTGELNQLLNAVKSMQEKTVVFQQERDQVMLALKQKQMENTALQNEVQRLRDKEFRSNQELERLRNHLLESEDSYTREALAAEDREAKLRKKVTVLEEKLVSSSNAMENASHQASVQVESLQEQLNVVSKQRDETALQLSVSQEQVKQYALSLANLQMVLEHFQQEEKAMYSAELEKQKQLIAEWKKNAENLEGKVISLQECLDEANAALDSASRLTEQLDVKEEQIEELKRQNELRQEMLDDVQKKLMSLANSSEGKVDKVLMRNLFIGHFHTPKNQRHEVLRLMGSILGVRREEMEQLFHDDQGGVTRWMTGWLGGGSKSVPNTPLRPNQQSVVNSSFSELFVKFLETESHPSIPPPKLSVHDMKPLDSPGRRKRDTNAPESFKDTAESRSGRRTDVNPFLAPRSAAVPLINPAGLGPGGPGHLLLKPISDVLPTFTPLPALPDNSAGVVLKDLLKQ
UniProt Q32P51: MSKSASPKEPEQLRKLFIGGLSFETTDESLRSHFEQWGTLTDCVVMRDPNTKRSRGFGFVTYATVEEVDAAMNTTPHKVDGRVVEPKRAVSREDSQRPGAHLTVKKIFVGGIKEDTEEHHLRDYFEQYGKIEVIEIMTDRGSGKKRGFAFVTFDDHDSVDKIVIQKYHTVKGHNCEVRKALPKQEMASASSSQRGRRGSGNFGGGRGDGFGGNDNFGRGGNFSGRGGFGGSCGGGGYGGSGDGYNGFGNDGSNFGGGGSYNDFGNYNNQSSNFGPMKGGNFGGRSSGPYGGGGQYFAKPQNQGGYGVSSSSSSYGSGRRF
UniProt Q16836: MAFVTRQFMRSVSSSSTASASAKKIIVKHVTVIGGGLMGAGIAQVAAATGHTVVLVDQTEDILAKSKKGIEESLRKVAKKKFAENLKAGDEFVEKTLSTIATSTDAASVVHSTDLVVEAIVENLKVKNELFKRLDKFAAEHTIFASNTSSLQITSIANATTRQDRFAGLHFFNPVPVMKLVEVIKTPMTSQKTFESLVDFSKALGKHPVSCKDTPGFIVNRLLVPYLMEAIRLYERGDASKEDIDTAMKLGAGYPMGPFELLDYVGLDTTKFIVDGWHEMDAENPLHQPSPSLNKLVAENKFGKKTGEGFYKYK

The other results are listed elsewhere or left out. Small differences around the control level are noise.

Compound in the test: CN[C@@H]1C[C@H]2O[C@@](C)([C@@H]1OC)n1c3ccccc3c3c4c(c5c6ccccc6n2c5c31)C(=O)NC4 [staurosporine]
The test can be described thus: log2 fold change of tryptic peptide abundance, ligand vs vehicle (limited proteolysis) (log2 ratio); higher = more trypsin-susceptible (destabilized). The note with it: ligand concentration: 20 uM; sample: K562 cleared lysate; digestion: 4 min, 22 C (HT-PELSA RT4min, Orbitrap Astral).
Turning to “CHD9 (peptide sequence: ESNVGGIQQLSK, peptide start residue: 1338) (UniProt Q3L8U1)”, the log2 fold change is 0.214.

For the target “UniProt Q15695 (peptide sequence: LHEEWLLR, peptide start residue: 71)”, the log2 fold change is -0.00797.

On to “MTFR1 (peptide sequence: KPEMPNMLEILK, peptide start residue: 232) (UniProt Q15390)”, for which the log2 fold change stood at 0.349.

Consider “PGS1 (peptide sequence: LLGLLPGRPGLAALLGR, peptide start residue: 17) (UniProt Q32NB8)”, for which the log2 fold change is -0.195.

For the target “NDUFA5 (peptide sequence: ILDVLEEIPK, peptide start residue: 31) (UniProt Q16718)”, the log2 fold change was 0.0723.

Consider “SWI5 (peptide sequence: SGQADGTSEESLHLDIQK, peptide start residue: 148) (UniProt Q1ZZU3)”, for which the log2 fold change is -0.318.

With “UniProt Q2VPK5 (peptide sequence: EVAFYNR, peptide start residue: 314)”, the log2 fold change came to 0.218.

For the target “UniProt Q16760 (peptide sequence: SETELLLSGK, peptide start residue: 1050)”, the log2 fold change amounted to 0.144.

Consider “VMAC (peptide sequence: EANAHLAAVHRR, peptide start residue: 11) (UniProt Q2NL98)”, for which the log2 fold change is 0.377.

For “ZBED5 (peptide sequence: KIDAVQLSNSTVAR, peptide start residue: 237) (UniProt Q49AG3)”, the log2 fold change is -0.5.

Turning to “UniProt Q3ZCT1 (peptide sequence: CNECGTIFR, peptide start residue: 278)”, the log2 fold change is 0.0639.

“DBN1 (peptide sequence: TDAAVEMK, peptide start residue: 166) (UniProt Q16643)”: the log2 fold change is -0.143.

With “MYLK (peptide sequence: SASKEELK, peptide start residue: 517) (UniProt Q15746)”, the log2 fold change turned out to be 0.222.

As for “TRIP11 (peptide sequence: EKVFAVLNEK, peptide start residue: 1099) (UniProt Q15643)”, the log2 fold change came out at 0.574.

As to “HNRNPA1L2 (peptide sequence: GHNCEVR, peptide start residue: 172) (UniProt Q32P51)”, the log2 fold change amounted to 0.553.

As to “MAPRE1 (peptide sequence: LEHEYIQNFK, peptide start residue: 67) (UniProt Q15691)”, the log2 fold change turned out to be 0.447.

Take “INF2 (peptide sequence: VTLLHHVLEEAEKSHPDLLQLPR, peptide start residue: 798) (UniProt Q27J81)”: the log2 fold change is -0.602.

On to “PROSER3 (peptide sequence: PHTAVPTAVNVTSASHAVAPLQEIK, peptide start residue: 156) (UniProt Q2NL68)”, for which the log2 fold change is -0.541.

Turning to “DDB1 (peptide sequence: MQEVVANLQYDDGSGMK, peptide start residue: 1105) (UniProt Q16531)”, the log2 fold change was -0.287.

For “HADH (peptide sequence: FAGLHFFNPVPVMK, peptide start residue: 166) (UniProt Q16836)”, the log2 fold change was 0.747.

Consider “RASA2 (peptide sequence: DAIYTIPVK, peptide start residue: 648) (UniProt Q15283)”, for which the log2 fold change is 0.159.

With “SAFB (peptide sequence: MSSPEDDSDTKR, peptide start residue: 382) (UniProt Q15424)”, the log2 fold change was -0.163.

For the target “UniProt Q3YBR2 (peptide sequence: SLLDGLASSPR, peptide start residue: 2)”, the log2 fold change was 0.19.

For the target “UniProt Q16352 (peptide sequence: EYQDLLNVK, peptide start residue: 382)”, the log2 fold change is -0.0563.

Consider “UniProt Q2KHM9 (peptide sequence: VNSTTEANIHLK, peptide start residue: 698)”, for which the log2 fold change is 0.499.

As for “ZNHIT3 (peptide sequence: SLLLNPHLR, peptide start residue: 103) (UniProt Q15649)”, the log2 fold change is 0.392.

As to “VAMP3 (peptide sequence: LQQTQNQVDEVVDIMR, peptide start residue: 15) (UniProt Q15836)”, the log2 fold change is -0.068.

“CSRP2 (peptide sequence: LGIKPESVQPHRPTTNPNTSK, peptide start residue: 88) (UniProt Q16527)”: the log2 fold change was -0.255.
